Results published in patent US12234202B2, “Covalent inhibitors of coronavirus papain-like protease” (UT-Battelle, LLC, priority 2021, dated 2025).
At least one structure is not confirmed: it was looked up by name or label, or the drawing left a doubt.

System: SARS-CoV-2 isolate USA-WA1/2020
Type: cell-based

SMILES: COC(=O)/C=C/C(=O)NNC(=O)CCc1ccc(NC(C)=O)cc1C(=O)N[C@H](C)c1cccc2ccccc12 [Compound 8, methyl-(R,E)-4-(2-(3-(4-acetamido-2-((1-(naphthalen-1-yl)ethyl)carbamoyl)phenyl)propanoyl)hydrazineyl)-4-oxobut-2-enoate]
- cytoprotective effects (SARS-CoV-2-infected Vero E6 cells): insignificant cytoprotective effects
- EC50 (μM) (cytopathic effect in SARS-CoV-2-infected Vero E6 cells, 48 h, MOI 0.1): no CPE
